{
  "source": "patent US20020192286A1",
  "about": "“Biodegradable triblock copolymers as solubilizing agents for drugs and method of use thereof” (Macromed, Incorporated, priority 2001, published 2002)",
  "experiment": "physchem",
  "method": "Triblock copolymers of Example 2 were used. The neat polymer and the drug were mixed and gently heated (ca. 50° C.) to completely dissolve the drug. Water was added to the mixture to afford a 23% by weight aqueous solution of the triblock copolymers. The solution was allowed to stand for 30 minutes before filtration (0.2 μm pore size filter).",
  "data": [
    {"smiles": "COC(=O)C1=C(C)NC(C)=C(C(=O)OC)C1c1ccccc1[N+](=O)[O-]", "note": "[nifedipine]", "values": [
      {"measurement": "increase of solubility", "result": "~1000", "unit": "fold"},
      {"measurement": "solubility", "setting": "water, water solubility", "result": 6, "unit": "µg/mL"}
    ]}
  ]
}
